# Source: the supplement of paper PMC8728848
# The list shows a part of the results.
# Columns and labels:
# Assay in all cases: glycan array binding signal (z-score within array); higher = stronger binding
# Conditions in all cases: glycan notation: IUPAC condensed, linker removed
# [1] = molecular target: Fuc(a1-2)[GalNAc(b1-3)]Gal
# How it was run: (§1)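 From the Consortium for Functional Glycomics database, 3228 arrays were curated, keeping only those whose protein sequence was available. Binding is given as a within-array Z-score averaged across arrays sharing a protein sequence and across linkers. Negative Z-scores can be read as non-binding.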
# [2] = molecular target: Fuc(a1-3)GlcNAc
# How it was run: as §1
# [3] = molecular target: Fuc(a1-3)[Gal(b1-4)]Glc6S
# How it was run: as §1
# [4] = molecular target: Fuc(a1-3)[Gal(b1-4)]GlcNAc
# How it was run: as §1
# [5] = molecular target: Fuc(a1-3)[Gal(b1-4)]GlcNAc(b1-2)Man
# How it was run: as §1
# [6] = molecular target: Fuc(a1-3)[Gal(b1-4)]GlcNAc(b1-2)Man(a1-3)[Fuc(a1-3)[Gal(b1-4)]GlcNAc(b1-2)Man(a1-6)]Man(b1-4)GlcNAc(b1-4)GlcNAc
# How it was run: as §1
# [7] = molecular target: Fuc(a1-3)[Gal(b1-4)]GlcNAc(b1-2)Man(a1-3)[Fuc(a1-3)[Gal(b1-4)]GlcNAc(b1-2)Man(a1-6)]Man(b1-4)GlcNAc(b1-4)[Fuc(a1-6)]GlcNAc
# How it was run: as §1
# [8] = molecular target: Fuc(a1-3)[Gal(b1-4)]GlcNAc(b1-3)Gal(b1-3)[Fuc(a1-4)]GlcNAc
# How it was run: as §1
# [9] = molecular target: Fuc(a1-3)[Gal(b1-4)]GlcNAc(b1-3)Gal(b1-4)[Fuc(a1-3)]GlcNAc
# How it was run: as §1
# [10] = molecular target: Fuc(a1-3)[Gal(b1-4)]GlcNAc(b1-3)Gal(b1-4)[Fuc(a1-3)]GlcNAc(b1-3)Gal(b1-4)[Fuc(a1-3)]GlcNAc
# How it was run: as §1
# [11] = molecular target: Fuc(a1-3)[Gal(b1-4)]GlcNAc(b1-3)GalNAc
# How it was run: as §1
# [12] = molecular target: Fuc(a1-3)[Gal(b1-4)]GlcNAc(b1-6)GalNAc
# How it was run: as §1
# [13] = molecular target: Fuc(a1-3)[Gal(b1-4)]GlcNAc(b1-6)[Gal(b1-3)GlcNAc(b1-3)]Gal(b1-4)Glc
# How it was run: as §1
# [14] = molecular target: Fuc(a1-3)[Gal(b1-4)]GlcNAc6S
# How it was run: as §1
# [15] = molecular target: Fuc(a1-3)[Gal3S(b1-4)]Glc
# How it was run: as §1
# [16] = molecular target: Fuc(a1-3)[Gal3S(b1-4)]GlcNAc
# How it was run: as §1
# [17] = molecular target: Fuc(a1-3)[Gal3S(b1-4)]GlcNAc6S
# How it was run: as §1
# [18] = molecular target: Fuc(a1-3)[GalNAc(b1-4)]GlcNAc
# How it was run: as §1
# [19] = molecular target: Fuc(a1-3)[GalNAc(b1-4)]GlcNAc6S
# How it was run: as §1
# [20] = molecular target: Fuc(a1-4)GlcNAc
# How it was run: as §1
# [21] = molecular target: Fuc(b1-3)GlcNAc
# How it was run: as §1
# [22] = molecular target: Gal(a1-2)Gal
# How it was run: as §1
# [23] = molecular target: Gal(a1-3)Gal
# How it was run: as §1
# [24] = molecular target: Gal(a1-3)Gal(b1-3)GlcNAc
# How it was run: as §1
# [25] = molecular target: Gal(a1-3)Gal(b1-3)GlcNAc(b1-2)Man
# How it was run: as §1
# [26] = molecular target: Gal(a1-3)Gal(b1-3)GlcNAc(b1-2)Man(a1-3)[Gal(a1-3)Gal(b1-3)GlcNAc(b1-2)Man(a1-6)]Man(b1-4)GlcNAc(b1-4)GlcNAc
# How it was run: as §1
# [27] = molecular target: Gal(a1-3)Gal(b1-3)GlcNAc(b1-3)GalNAc
# How it was run: as §1
# [28] = molecular target: Gal(a1-3)Gal(b1-3)GlcNAc(b1-6)GalNAc
# How it was run: as §1
# [29] = molecular target: Gal(a1-3)Gal(b1-3)[Fuc(a1-4)]GlcNAc(b1-2)Man(a1-3)[Gal(a1-3)Gal(b1-3)[Fuc(a1-4)]GlcNAc(b1-2)Man(a1-6)]Man(b1-4)GlcNAc(b1-4)GlcNAc
# How it was run: as §1
# [30] = molecular target: Gal(a1-3)Gal(b1-4)Glc
# How it was run: as §1
# [31] = molecular target: Gal(a1-3)Gal(b1-4)GlcNAc
# How it was run: as §1
# [32] = molecular target: Gal(a1-3)Gal(b1-4)GlcNAc(b1-2)Man
# How it was run: as §1
# [33] = molecular target: Gal(a1-3)Gal(b1-4)GlcNAc(b1-2)Man(a1-3)[Gal(a1-3)Gal(b1-4)GlcNAc(b1-2)Man(a1-6)]Man(b1-4)GlcNAc(b1-4)GlcNAc
# How it was run: as §1
# [34] = molecular target: Gal(a1-3)Gal(b1-4)GlcNAc(b1-3)GalNAc
# How it was run: as §1
# [35] = molecular target: Gal(a1-3)Gal(b1-4)GlcNAc(b1-6)GalNAc
# How it was run: as §1
# [36] = molecular target: Gal(a1-3)Gal(b1-4)[Fuc(a1-3)]GlcNAc
# How it was run: as §1
# [37] = molecular target: Gal(a1-3)Gal(b1-4)[Fuc(a1-3)]GlcNAc(b1-2)Man(a1-3)[Gal(a1-3)Gal(b1-4)[Fuc(a1-3)]GlcNAc(b1-2)Man(a1-6)]Man(b1-4)GlcNAc(b1-4)GlcNAc
# How it was run: as §1
# [38] = molecular target: Gal(a1-3)GalNAc
# How it was run: as §1
# [39] = molecular target: Gal(a1-3)[Gal(a1-4)]Gal(b1-4)GlcNAc
# How it was run: as §1
# [40] = molecular target: Gal(a1-4)Gal(b1-3)GlcNAc(b1-2)Man(a1-3)[Gal(a1-4)Gal(b1-3)GlcNAc(b1-2)Man(a1-6)]Man(b1-4)GlcNAc(b1-4)GlcNAc
# How it was run: as §1
# [41] = molecular target: Gal(a1-4)Gal(b1-4)Glc
# How it was run: as §1
# [42] = molecular target: Gal(a1-4)Gal(b1-4)GlcNAc
# How it was run: as §1
# [43] = molecular target: Gal(a1-4)Gal(b1-4)GlcNAc(b1-2)Man(a1-3)[Gal(a1-4)Gal(b1-4)GlcNAc(b1-2)Man(a1-6)]Man(b1-4)GlcNAc(b1-4)GlcNAc
# How it was run: as §1
# [44] = molecular target: Gal(a1-4)Gal(b1-4)GlcNAc(b1-3)Gal(b1-4)Glc
# How it was run: as §1
# [45] = molecular target: Gal(a1-4)GlcNAc
# How it was run: as §1
binder,measurement,setting,value
"CBP21 (Serratia marcescens), O83009 (protein) MNKTSRTLLSLGLLSAAMFGVSQQANAHGYVESPASRAYQCKLQLNTQCGSVQYEPQSVEGLKGFPQAGPADGHIASADKSTFFELDQQTPTRWNKLNLKTGPNSFTWKLTARHSTTSWRYFITKPNWDASQPLTRASFDLTPFCQFNDGGAIPAAQVTHQCNIPADRSGSHVILAVWDIADTANAFYQAIDVNLSK",glycan array binding signal (z-score),[1],-0.158
same,glycan array binding signal (z-score),[2],-1.02
same,glycan array binding signal (z-score),[3],0.549
same,glycan array binding signal (z-score),[4],-1.06
same,glycan array binding signal (z-score),[5],-0.481
same,glycan array binding signal (z-score),[6],-0.009
same,glycan array binding signal (z-score),[7],0.55
same,glycan array binding signal (z-score),[8],-0.414
same,glycan array binding signal (z-score),[9],0.818
same,glycan array binding signal (z-score),[10],-1.15
same,glycan array binding signal (z-score),[11],0.402
same,glycan array binding signal (z-score),[12],-0.688
same,glycan array binding signal (z-score),[13],0.042
same,glycan array binding signal (z-score),[14],-0.134
same,glycan array binding signal (z-score),[15],-0.954
same,glycan array binding signal (z-score),[16],0.221
same,glycan array binding signal (z-score),[17],-0.484
same,glycan array binding signal (z-score),[18],1.56
same,glycan array binding signal (z-score),[19],0.894
same,glycan array binding signal (z-score),[20],-1.39
same,glycan array binding signal (z-score),[21],1.28
same,glycan array binding signal (z-score),[22],-2.54
same,glycan array binding signal (z-score),[23],-0.172
same,glycan array binding signal (z-score),[24],-0.788
same,glycan array binding signal (z-score),[25],-0.462
same,glycan array binding signal (z-score),[26],-0.517
same,glycan array binding signal (z-score),[27],-1.87
same,glycan array binding signal (z-score),[28],-0.703
same,glycan array binding signal (z-score),[29],1.67
same,glycan array binding signal (z-score),[30],-0.085
same,glycan array binding signal (z-score),[31],-0.806
same,glycan array binding signal (z-score),[32],-1.04
same,glycan array binding signal (z-score),[33],-0.019
same,glycan array binding signal (z-score),[34],-0.876
same,glycan array binding signal (z-score),[35],-0.138
same,glycan array binding signal (z-score),[36],-0.54
same,glycan array binding signal (z-score),[37],0.125
same,glycan array binding signal (z-score),[38],-0.024
same,glycan array binding signal (z-score),[39],0.762
same,glycan array binding signal (z-score),[40],-0.618
same,glycan array binding signal (z-score),[41],-0.834
same,glycan array binding signal (z-score),[42],-0.126
same,glycan array binding signal (z-score),[43],0.617
same,glycan array binding signal (z-score),[44],0.777
same,glycan array binding signal (z-score),[45],-0.226

# Rewritten with bars between the fields: part of the list above.
binder | measurement | setting | value
CBP21 (Serratia marcescens), O83009 (protein) MNKTSRTLLSLGLLSAAMFGVSQQANAHGYVESPASRAYQCKLQLNTQCGSVQYEPQSVEGLKGFPQAGPADGHIASADKSTFFELDQQTPTRWNKLNLKTGPNSFTWKLTARHSTTSWRYFITKPNWDASQPLTRASFDLTPFCQFNDGGAIPAAQVTHQCNIPADRSGSHVILAVWDIADTANAFYQAIDVNLSK | glycan array binding signal (z-score) | [36] | -0.54
same | glycan array binding signal (z-score) | [37] | 0.125
same | glycan array binding signal (z-score) | [38] | -0.024
